Results are given in words; binding and its absence hold for the method and conditions named. In cells and extracts the contact can be indirect. Some entries that bind do so weakly or less than the wild type. For some assays here: Where a sequence is shown, tags or fusion partners need not be part of it.

Sequences of proteins named here, by UniProt entry; tags and fusion partners are left off. Residues count along the entry.
UniProt P03520, residues 32-107: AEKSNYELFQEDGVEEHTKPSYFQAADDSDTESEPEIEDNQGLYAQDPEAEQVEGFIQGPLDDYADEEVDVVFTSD

The target in experiment [1] is TagRFP/TRIM69 (wild type) (human) (UniProt Q86WT6). As to the kind of experiment: cross-linking; intact doxycycline-induced HT1080 cells in 1x PBS treated with 0.2 mM EGS (membrane-permeable) for 30 min at room temperature, lysed in LDS sample buffer, Western blot with anti-RFP antibody. In general terms: A western blot detects proteins with antibodies after separation by electrophoresis.

For experiment [2], the target named is GST/P(32-107) wild type (vesicular stomatitis virus, Indiana serotype) (UniProt P03520). The experiment can be described thus: pull-down.

B1: TagRFP/TRIM69 (wild type) (protein, UniProt Q86WT6 1-500)
chain: MEVSTNPSSNIDPGDYVEMNDSITHLPSKVVIQDITMELHCPLCNDWFRDPLMLSCGHNFCEACIQDFWRLQAKETFCPECKMLCQYNNCTFNPVLDKLVEKIKKLPLLKGHPQCPEHGENLKLFSKPDGKLICFQCKDARLSVGQSKEFLQISDAVHFFTEELAIQQGQLETTLKELQTLRNMQKEAIAAHKENKLHLQQHVSMEFLKLHQFLHSKEKDILTELREEGKALNEEMELNLSQLQEQCLLAKDMLVSIQAKTEQQNSFDFLKDITTLLHSLEQGMKVLATRELISRKLNLGQYKGPIQYMVWREMQDTLCPGLSPLTLDPKTAHPNLVLSKSQTSVWHGDIKKIMPDDPERFDSSVAVLGSRGFTSGKWYWEVEVAKKTKWTVGVVRESIIRKGSCPLTPEQGFWLLRLRNQTDLKALDLPSFSLTLTNNLDKVGIYLDYEGGQLSFYNAKTMTHIYTFSNTFMEKLYPYFCPCLNDGGENKEPLHILHPQ
For B1, in experiment [1], the binding result is on record as “binds”.

B2: Cherry/TRIM69 (wild type) (protein, UniProt Q86WT6 1-500)
chain: MEVSTNPSSNIDPGDYVEMNDSITHLPSKVVIQDITMELHCPLCNDWFRDPLMLSCGHNFCEACIQDFWRLQAKETFCPECKMLCQYNNCTFNPVLDKLVEKIKKLPLLKGHPQCPEHGENLKLFSKPDGKLICFQCKDARLSVGQSKEFLQISDAVHFFTEELAIQQGQLETTLKELQTLRNMQKEAIAAHKENKLHLQQHVSMEFLKLHQFLHSKEKDILTELREEGKALNEEMELNLSQLQEQCLLAKDMLVSIQAKTEQQNSFDFLKDITTLLHSLEQGMKVLATRELISRKLNLGQYKGPIQYMVWREMQDTLCPGLSPLTLDPKTAHPNLVLSKSQTSVWHGDIKKIMPDDPERFDSSVAVLGSRGFTSGKWYWEVEVAKKTKWTVGVVRESIIRKGSCPLTPEQGFWLLRLRNQTDLKALDLPSFSLTLTNNLDKVGIYLDYEGGQLSFYNAKTMTHIYTFSNTFMEKLYPYFCPCLNDGGENKEPLHILHPQ
As for B2, in experiment [2], the binding result was “binds”.

The values above are taken from publication PMC6880163 (Journal of Virology, 2019).
